Binding data for 18 molecules are collected here from patent publication US20170233476A1.

The chains behind the UniProt entries cited, without tags or fusion partners. Residues count along the entry.
UniProt P16410, residues 36-161: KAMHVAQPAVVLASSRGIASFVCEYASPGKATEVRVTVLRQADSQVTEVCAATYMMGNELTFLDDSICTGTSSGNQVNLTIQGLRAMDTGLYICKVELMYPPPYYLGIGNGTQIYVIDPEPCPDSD

One assay deals with human CTLA4 (human) (UniProt P16410). The assay can be described thus: antibody selection, method not described.
Assay [1] has as its target T1, cynomolgus CTLA4/His (cynomolgus) (UniProt G7PL88).
T1 sequence: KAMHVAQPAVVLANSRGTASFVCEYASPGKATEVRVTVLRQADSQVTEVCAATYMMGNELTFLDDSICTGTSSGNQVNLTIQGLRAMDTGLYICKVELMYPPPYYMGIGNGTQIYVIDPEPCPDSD
The experiment in a line: ELISA, CTLA4/His captured on Ni-NTA plate, antibody at ~1 ug/mL, anti-human Fc-HRP detection. Background: In an ELISA, binding on a coated surface is turned into a signal by an enzyme label.

Numbering of substitutions follows the chain as printed. Results are given in words; binding and its absence hold for the method and conditions named. Some binding calls cover weakened binding; strength is not graded here. For some of these results: Sequences can lack the tags named with a protein.

B1: A1 (antibody, V domains shown)
VH: EVQLVQSGGGLVQPGRSLRLSCRGSNFNFDDLAISWVRQAPGKGLEWLGFVRSKAYGETTDYVASVKGRFTISRDDSKFIAWLQMDSLKTDDTAVYYCTTFNYWGQGTLVTVSS
VL: LPVLTQPPSVSVAPGKTARISCGGNNIASEAVHWYQKKPGQAPVLVIYYDSDRPSGIPERFSGSNSGNTATLRISRVDAGDEADYYCQVWDRTTDQPVFGGGTKLTVL
Regarding B1, the binding entry with human CTLA4 (human) is “binds”.

B2: CT1E1 (antibody, V domains shown)
VH: B1 VH with Q6E
VL: B1 VL with L1Q
Take B2: the binding entry (in the assay with human CTLA4 (human); in assay [1]) was “binds” each time.

B3: G1 (antibody, V domains shown)
VH: QVQLVQSGAEVKKPGASVKVSCKTSGNTFTNYYMHWVRQAPGQGLEWMGIMNPSGGSTSYAQKFQGRVTMTRDKSTSTVYMELSSLTSEDTAVYYCARDLFPHIYGNYYGMDIWGQGTTVTVSS
VL: QSVVTQPPSVSAAPGQNVTISCSGSSSNIGNNYVSWYQQLPGTAPKLLIYDNNRRASGIPDRFSGSKSGTSATLGITGLQTGDEADYYCGTWDRSLTTDWVFGGGTKLTVL
In the case of B3, in the assay with human CTLA4 (human), the binding result is on record as “binds”.

B4: F3 (antibody, V domains shown)
VH: QMQLVQSGAEVKKPGASVTVSCKASGYTFTNSYIHWVRQAPGQGLEWVGRLIPSSGYTIFSQKLQGRVSMTRDTSMSTHYLTLSHLRPEDTAVYYCATDGGNYNLDFWGQGTLVTVSS
VL: QPVLTQPPSVSGSPGQSVTISCTGTSSDVGGYNYVSWYQQHPGKAPKLMIYDVSSRPSGVSNRFSGSKSDNTASLTISGLQAEDEADYYCSSYTSSSPYVFGTGTKVTVL
Take B4: the binding result with human CTLA4 (human) was “binds”.

B5: F6 (antibody, V domains shown)
VH: EVQLVESGGGFVKPGRSLRLSCTASGFTFGDYGMSWFRQAPGKGLEWVGFIRSKAYGGTTDYAASVKGRFTISRDDSKSFAYLQMNSLKTEDTAVYYCTRGHYSASIWGQGTLVTVSS
VL: SYELMQPPSVSVAPGKTARITCGGNNIGSKSVHWYQQRPDQAPVLVIYSDNDRPSGIPERFSGSSSGHTATLTISRVEAGDEADYFCQVWDSNKNEWVFGGGTKLTVL
For B5, the binding entry with human CTLA4 (human) is “binds”.

B6: G3 (antibody, V domains shown)
VH: QVQLVQSGAEVKKPGASVKVSCKASGYTFTSYYMHWVRQAPGQGLEWMGIINPSGGSTSYAQKFQGRVTMTRDTSTSTVYMELSGLRSEDTAVYYCARYEHDYDSSKATTGYFDYWGQGTLVTVSS
VL: AIQLTQSPDSLAVSLGERATINCKSSQSILYRSNNKNYLAWYQQKPGQPPKLLIYWASTRESGVPDRFSGSGSGTDFTLTISSLQPEDFATYYCQQADRFPITFGQGTRLEIK
For the molecule B6, the binding result with human CTLA4 (human) is reported as “binds”.

B7: F1 (antibody, V domains shown)
VH: EVQLVQSGAEVKKPGASVKVSCKASGYTFTSYGISWVRQAPGQGLEWMGWISAYNGNTNYAQKLQGRVTMTTDTSTSTAYMELRSLRSDDTAVYYCARVGYGGYFDYWGQGTLVTVSS
VL: SYELMQPPSVSKGLRQTATLTCTGNSNNVGNQGADWLQQHQGHPPKLLSYRNNDRPSGISERFSASRSGSTASLTITGLQPEDEADYYCLAWDSSLSAWVFGGGTKVTVL
Take B7: in the assay with human CTLA4 (human), the binding entry is recorded as “binds”.

B8: G5 (antibody, V domains shown)
VH: QVQLQQSGPGLVKPSQTLSLTCAISGDSVSSNSAAWNWIRQSPSRGLEWLGRTYYRSKWYNDYAVSVKSRITINPDTSKNQFSLQLNSVTPEDTAVYYCARDRWELPFDYWGQGTTVTVSS
VL: QSVVTQPPSVSAASGQKVIISCSGSNSNIVNNYVSWYQQLPGAAPKVLIYANNKRPSGIPDRFSGSKSGTSAFLAITGLQTGDEADYYCGTWDGSLDVDVFGGGTKLTVL
Regarding B8, the binding result in the assay with human CTLA4 (human) is “binds”.

B9: F7 (antibody, V domains shown)
VH: QVQLVQSGAEVKKPGASVKVSCKASGYAFDGHYMHWVRQAPGQRLEWMGWVDPHSGATNYAQNFQGGVTMTRDTSINTVYMELSSLKSDDTAVYYCARDFYDTSAKSGAFDIWGQGTMVTVSS
VL: AIQLTQSPSSVSASVGDRVTITCRASQGISSWLAWYQQKPGKAPKLLIYAASSLQSGVPSRFSGSGSGTDFTLTISSLQPEDFATYYCQQVNSFPWAFGQGTKVEIK
B9: the binding result with human CTLA4 (human) is “binds”.

B10: A2 (antibody, V domains shown)
VH: QMQLVQSGAEVKMPGSSVRISCKASGGSFTTHFINWVRQAPGQGLEWMGWMNPNTGNTGYAERFQGRVTLTRDTSISTAYLELSSLRSDDTAVYYCARNPAESGRFDPWGQGTLVTVSS
VL: QSALTQPPSASGSPGRSVTISCTGTSNNVGGYNYVSWYQQHPGKAPKLMIYEVTKRPSGVPDRFSGSKSGNTASLTVSGLQAEDEADYYCGTWDGSLNAYVFGTGTKVTVL
For the molecule B10, in the assay with human CTLA4 (human), the binding entry is reported as “binds”.

B11: B6 (antibody, V domains shown)
VH: QVQLVQSGAEVKKPGATVKVSCTASGFPFRNYAMHWVRQAPGQRLEWLGWIDAGNGNTKYSQTFHGRVTITRDTSASTAYMELSSLRSEDTAVYYCARDLLWPYLVTSGGAFDIWGQGTMVTVSS
VL: SYELMQPPSTSGTPGQRVTISCSGSSSNIGSHIVNWYQQFPGAAPQLLIYNDDQRPSGVPDRFSGSKSGASASLAISGLQSEDEAHYYCSAWDDILKGPVFGGGTKLTVL
As for B11, the binding entry with human CTLA4 (human) was “binds”.

B12: C2 (antibody, V domains shown)
VH: QVQLVQSGAEVKKPGASVKVSCKASGYTFTTHYIHWVRQAPGQGLEWMAIINPNDGVKVYAQKFKGRLTVASDTSATTVYMDLSGLTSDDTAVYYCGREQHGGHHDYWGQGTLVTVSS
VL: QAGLTQPASVSGSPGQSITISCTGTSSDVGGYNYVSWYQQHPGKAPKLMIYDVTNRPSGVSNRFSGSKSGNTASLTISGLQAEDEADYYCKSYTSSSTPYVFGTGTKVTVL
For the molecule B12, the binding result in the assay with human CTLA4 (human) was “binds”.

B13: A12 (antibody, V domains shown)
VH: QVQLVESGGGLVQPGGSLRLSCAASGFTFSNYAMNWVRQTPGKGLEWVSVNYNDGFGTFNGYYADSVKGRFIISRDNSKNTLYLQMNSLRVDDTAVYYCARDSGVAGPYYFDNWGQGTLVTVSS
VL: AIQLTQSPSTLSASVGDRVTITCRASQSISSWLAWYQQKPGKAPKLLIYKASSLESGVPSRFSGSGSGTEFTLTISSLQPDDFATYYCQQYNSSPLTFGGGTKLEIK
As for B13, the binding result with human CTLA4 (human) is given as “binds”.

B14: G2 (antibody, V domains shown)
VH: QVQLVESGGGLIQPGGSLRLSCAASGFTVSSAYMSWVRQAPGKGLEWVSVIYRGGTTYYADSVKGRFTISRDNSKNTLYLQMNSLRAEDTAVYYCRGEGGNSGDYFDYWGQGTTVTVSS
VL: NFMLTQPASVSGSPGQSITISCTGTSSDVGGYNFVSWYQQHPGKAPKLMIYDVSKRPSGVSNRFSGSKSGNTASLTISGLQAEDEADYYCSSYTSTNTLDVLFGGGTKLTVL
On to B14, for which the binding result with human CTLA4 (human) is “binds”.

B15: F5 (antibody, V domains shown)
VH: EVQLVQSGTEVKKPGSSVKVSCKASGGSFSNYAISWVRQAPGQGLEWMGRIIPILGIANYAQKFQGRVTITADKSTSTAYMELSSLGSEDTAVYYCARESGSYLDPWGQGTLVTVSS
VL: DIVMTQSPDSLAVSLGERATINCKSSQSVLYSPNNKNYLTWYQQKPGQPPKLLMYWASTRESGVPDRFSASGSGTDFTLTISSLQAEDVAVYYCQQSRSGPYTFGQGTKVEIK
Take B15: the binding result in the assay with human CTLA4 (human) was “binds”.

B16: G12 (antibody, V domains shown)
VH: EVQLVESGAEVKKPGASVKVSCKASGYTFTSYGISWVRQAPGQGLEWMGWISAYNGNTNYAQKLQGRVTMTTDTSTSTAYMELRSLRSDDTAVYYCARGPGILTGYYFDYWGQGTLVTVSS
VL: EIVMTQSPSSLSASVGDRVTITCRASQGINYHLAWYQQKPGKAPKLLIYAASALQSGVPSRFSGTGSGTEFTLTISSLQPEDFATYYCQQFNTYPLTFGGGTKLEIK
As for B16, the binding result with human CTLA4 (human) was “binds”.

B17: E8 (antibody, V domains shown)
VH: QVQLVQSGAEVKKPGASVKVSCEASGYTFTNYYIHWLRQAPGQGLEWMGIINPSGGSTTYAQKFQGRITMTRDTSTNTLYMELSSLRSEDTAIYYCARRDCRGPSCYFAYWGQGTTVTVSS
VL: DIVMTQSPSSLSASVGDRVTITCRASQSISSYLNWYQQKPGKAPKLLIYAASSLQSGVPPRFSGSGSGTEFTLTISSLQPEDFATYYCQQANSFPPTFGQGTKVDIK
In the case of B17, the binding entry with human CTLA4 (human) is recorded as “binds”.

B18: A4 (antibody, V domains shown)
VH: QVQLVESGGGLIQPGGSLRLSCAASGFSVSNNYMNWVRQAPGKGLEWVSVIYRGGSTYYADSVKGRFTISRDNSKNTLYLQMNSLRTEDTAVYYCLREGGTSGDYVNDWGQGTLVTVSS
VL: QSVVTQPPSVSGAPGQRVTISCTGSSSNIGAGYDVHWYQQLPGTAPKLLIYGNKNRPSGVPDRFSGSKSGTSASLAITGLQAEDEADYYCQAYDSSLSVVFGGGTKLTVL
Regarding B18, the binding entry in the assay with human CTLA4 (human) is given as “binds”.
